Values quoted from earlier work, collected in patent US11682473B2, “Skin permeability prediction” (priority 2016, dated 2023).
Like-named read-outs stand apart in the source and are kept apart here.

Settings: for log KPexp: uncorrected literature value (permeabilities in cm/h)

COc1ccc2cc([C@H](C)C(=O)O)ccc2c1 [Naproxen, naproxen]
log KPexp (Texp 25 °C): −3.40
log KPexp (Texp 37 °C): −2.54
log Kp303K (experimental literature values (in vitro diffusion cells), averaged over sources, temperature-corrected to 303 K): −3.0 cm/h
